PubChem BioAssay AID1259254 | NCATS, 2017

Screen: 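Genome-wide screen for genes that prevent DNA re-replication in cancer cells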 (primary screen)
Cell system: human HCT116 colorectal cancer cells
Reagent: single siRNA against human genes
Timing: 3 days
Measurement: 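Imaged Hoechst DNA stain sorts each cell into a cycle phase by DNA amount; per plate, G2 fraction set to 0% for non-targeting and 100% for GMNN siRNA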
Direction: G2 robust z-score and G2 cells, % of GMNN control: higher = more G2 cells, more excess DNA replication; raw share of cells in G2: higher = larger share of cells with G2 DNA content
Active means: 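Active siRNAs have a G2 robust z of 5 or more median absolute deviations over the median, which in these data means about 38% or higher of GMNN control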
This is a random part of about 59,000 reagents. About 1,550 of them (2.6%) were called active. 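G2 share is only a proxy for re-replication; each gene was hit by three separate siRNAs, and active genes were retested.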 Raw values are not corrected between plates. A number with no mark means an inactive call. The record does not give: the amount of reagent.

Target gene,PubChem SID,G2 robust z-score,"G2 cells, % of GMNN control",raw share of cells in G2 (%)
ABCC1,SID160767970,-0.17,1.77,3.78
ABCC1,SID160768047,-0.693,-1.91,4.62
ABCC1,SID160768141,0.58,7.05,8.27
ARPIN (actin related protein 2/3 complex inhibitor),SID160765049,0.941,9.59,7.28
ARPIN (actin related protein 2/3 complex inhibitor),SID160765050,-0.701,-1.97,2.4
ARPIN (actin related protein 2/3 complex inhibitor),SID160765052,0.384,5.67,6.47
TRIML1 (tripartite motif family like 1),SID160764341,0.021,3.12,6.18
TRIML1 (tripartite motif family like 1),SID160764342,-0.895,-3.33,3.07
TRIML1 (tripartite motif family like 1),SID160764343,-0.915,-3.47,4.41
MRGPRX3 (MAS related GPR family member X3),SID160755552,0.502,6.5,8.17
MRGPRX3 (MAS related GPR family member X3),SID160755553,3.24,25.8,13.5
MRGPRX3 (MAS related GPR family member X3),SID160755554,-0.504,-0.581,3.09
CREB3L1 (cAMP responsive element binding protein 3 like 1),SID160753864,-0.712,-2.04,3.71
CREB3L1 (cAMP responsive element binding protein 3 like 1),SID160753865,1.3,12.1,10.2
CREB3L1 (cAMP responsive element binding protein 3 like 1),SID160753866,-0.993,-4.02,3.8
HINT1 (histidine triad nucleotide binding protein 1),SID160774949,-0.128,2.07,5.47
HINT1 (histidine triad nucleotide binding protein 1),SID160774950,0.956,9.69,7.22
HINT1 (histidine triad nucleotide binding protein 1),SID160774952,-1.48,-7.47,1.25
SLC22A31,SID160724852,0.951,9.66,7.07
SLC22A31,SID160724853,-0.788,-2.58,2.12
SLC22A31,SID160724854,-0.0887,2.34,3.89
TSSK6 (testis specific serine kinase 6),SID160751581,-0.798,-2.65,4.76
TSSK6 (testis specific serine kinase 6),SID160751582,-0.308,0.804,5.48
TSSK6 (testis specific serine kinase 6),SID160751583,-0.0748,2.44,4.46
KCNE5,SID160736715,3.35,26.6,14.4
KCNE5,SID160736716,0.473,6.3,6.67
KCNE5,SID160736717,1.62,14.3,8.31
NOL10 (nucleolar protein 10),SID160749837,4.07,31.6,17.6
NOL10 (nucleolar protein 10),SID160749838,1.77,15.4,11
NOL10 (nucleolar protein 10),SID160749839,1.23,11.7,5.56
SOWAHC (sosondowah ankyrin repeat domain family member C),SID160734114,-1.53,-7.79,0.642
SOWAHC (sosondowah ankyrin repeat domain family member C),SID160748282,-0.534,-0.792,4.24
SOWAHC (sosondowah ankyrin repeat domain family member C),SID160748283,0.16,4.09,6.44
GUCA2B (guanylate cyclase activator 2B),SID160723822,-0.0911,2.33,5.05
GUCA2B (guanylate cyclase activator 2B),SID160774734,-0.39,0.22,5.12
GUCA2B (guanylate cyclase activator 2B),SID160774735,5.59 (active),42.3,21.8
YY1AP1 (YY1 associated protein 1),SID160743341,1.1,10.7,6.56
YY1AP1 (YY1 associated protein 1),SID160743342,1.56,13.9,12.2
YY1AP1 (YY1 associated protein 1),SID160743344,-0.192,1.62,4.14
PDGFRL (platelet derived growth factor receptor like),SID160713785,-0.474,-0.368,5.49
PDGFRL (platelet derived growth factor receptor like),SID160714829,-1.07,-4.53,3.88
PDGFRL (platelet derived growth factor receptor like),SID160731382,-0.905,-3.4,2.83
MSI2 (musashi RNA binding protein 2),SID160756195,1.04,10.3,8.37
MSI2 (musashi RNA binding protein 2),SID160756196,3.25,25.8,16
MSI2 (musashi RNA binding protein 2),SID160756197,-0.224,1.39,6.32
NABP1 (nucleic acid binding protein 1),SID160731742,-0.443,-0.147,4.3
NABP1 (nucleic acid binding protein 1),SID160748094,-0.722,-2.11,3.46
NABP1 (nucleic acid binding protein 1),SID160748095,3.63,28.5,17.5

Part of the list above in another layout.
{"Target gene":"CREB3L1 (cAMP responsive element binding protein 3 like 1)","PubChem SID":"SID160753866","G2 robust z-score":-0.993,"G2 cells, % of GMNN control":-4.02,"raw share of cells in G2 (%)":3.8}
{"Target gene":"HINT1 (histidine triad nucleotide binding protein 1)","PubChem SID":"SID160774949","G2 robust z-score":-0.128,"G2 cells, % of GMNN control":2.07,"raw share of cells in G2 (%)":5.47}
